These are yes or no findings as the source states them, for the method shown. In cells and extracts the contact can be indirect. For some assays here: Tags and fused reporters may be left off the sequences shown.
Columns and labels:
Msd1-GFP (Drosophila) = biological target: T1, Msd1-GFP (Drosophila) (UniProt Q9W0G7); assay: co-IP; cleavable affinity purification (cl-AP): High Speed Supernatant of MG132-treated 0–3 hr Drosophila embryos incubated overnight at 4°C with GFP-TRAP-Sulfo or GFP-TRAP-PC beads (GFP-binding protein), washed in BRB80 + 0.1% IGEPAL, released with 50 mM DTT or UV; eluates by Western blot and SYPRO-ruby gel
T1 sequence: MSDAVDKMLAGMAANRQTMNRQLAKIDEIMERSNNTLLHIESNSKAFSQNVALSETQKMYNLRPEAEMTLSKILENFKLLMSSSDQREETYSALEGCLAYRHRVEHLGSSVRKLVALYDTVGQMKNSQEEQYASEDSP

[1] = biological target: γ-Tubulin-GFP (Drosophila); assay: as above

Molecule: γ-Tubulin (endogenously expressed, untagged) (Drosophila (endogenous in embryos))
- binding (Msd1-GFP (Drosophila)): no binding

B1: Dgt3 (a subunit of the Augmin complex) (protein, UniProt Q9W2P0 1-565)
chain: MGDLLSNSEFFKKLGVDSSNQWILYDEQMEMFFKFLSGNITDANILTERQVLEREEMQRRGEWLSASDRELKLLQIEAESPGLLNYKQQDVDALTMSIEAIEDASRDYATLLEDMMTTKHSITKHLGEVECVTAELQLREKDLIAECQSKAKQLEELQQENCRLSAEAKKAFTAPQLPPLFMHQLPLEQYFHKCDSFMQYFTLYVKENFKIQDYDEFQSAEEDLGREKAKLEDLERGIQFYALSYIRTKAKVKATQCLIDQLDLGKIHCLSLTDMAREMHDLQLLNDYQLSNTHDTLLNDLTIHIQQHTQRRIELVLYENTKLKLERAVRRHESDKKLTKIISDALSNAELLWIAIQLDCDKKRNCLDTSEELRDQAQATWQRIQTMRSINASYQGICAQFVQEIANLLSAHLGQNIKATEAKACLFEYEKFGRLLSYSFQSMLNRKSCAAVQDQLAELKRLEQTLRPFVYDSPLEQPMFENVRYLSAIYNVTQQQTRLDESGRSLRKDFLENVVGRIERDKLYRYSVVLWIWFLTEPQRMMHAIDEVKKAAAAVIRPGGGLHRK
- binding [1]: no binding

From PMC6959987
